Microarray screen: hit calls

Targets (5′ to 3′):
SAM-II: SAM-II riboswitch RNA pseudoknot, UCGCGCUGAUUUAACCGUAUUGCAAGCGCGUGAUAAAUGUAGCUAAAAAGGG. Hit rate about 1% of about 21,000 compounds.

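The test is a small-molecule microarray: each compound is printed twice on a reactive slide, and binding shows as fluorescence of the labelled oligonucleotide after washing. For the PreQ1, TPP and SAM-II riboswitches the laboratory earlier reported (doi:10.1038/s41467-019-09493-3) 1 µM RNA, 2 h, and a rule that included a mean Z-score above 3 (spot signal-to-noise against the whole library), a score well above that on a control array, and duplicate spots agreeing (coefficient of variation under 100). The data file gives only the calls; its cut-offs may differ, and compounds hitting several targets are kept. The calls come from the array alone, and fixing a compound to the slide can hide its binding.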
“hit” means called a hit, “none” means screened and not called a hit.
Compounds were drawn at random from those tested, without regard to their results.

Compound	SAM-II
CCn1nc(CC(C)C)cc1C(=O)NC[C@@H]1C[C@H](F)CN1	none
CCCc1n[nH]c2c1C(c1ccc(Br)cc1)C(C#N)=C(N)O2 (centres unmarked)	none
Clc1ncnc2[nH]ccc12	none
O=C(CCc1cc2n(n1)CCNC2)N1CCOC(c2ccc(F)cc2)C1 (centres unmarked)	none
O=C1SC(Nc2ccc(Cl)cc2)C(=O)N1c1ccccc1 (centres unmarked)	none
OCc1cccc(CC2CCN(c3nnc(-c4ccccc4)s3)C2)c1 (centres unmarked)	none
Cc1cccc(NC(=O)c2c(N)sc(-c3ccccc3)c2C)c1	none
Nc1nc(Cn2nnn(-c3ccccc3Cl)c2=O)nc(N2CCCCC2)n1	none
CCSC[C@H](N)C(=O)NCc1cnn2ccccc12	none
CC(=O)c1onc(C(=O)NCc2ccccc2)c1N	none
CC(C)OC(=O)c1ccc(Nc2nc3ccccc3c3nncn23)cc1	none
Cc1c(NCc2cccnc2)cccc1C(=O)NCCN1CCCC(O)C1 (centres unmarked)	none
COc1cccc(CC(=O)n2nc(N)c3cc4ccc(OC)cc4nc32)c1	none
CC1CC(Nc2ccccc2)c2ccccc2N1C(=O)Cc1ccc(F)cc1 (centres unmarked)	none
Clc1ccc2nc(-c3ccsc3)c(NC3CCCCC3)n2c1	none
Cc1n[nH]c(C)c1S(=O)(=O)N1CCNCC1	none
COCCC1(C(=O)O)CCCN(C(=O)c2cnc(N)nc2C)C1 (centres unmarked)	none
c1ccc(CNc2nc(-c3cccs3)cs2)cc1	none
CCCCn1c(CCCO)nc2ccccc21	none
N#CC1=C(N)Oc2[nH]nc(-c3ccccn3)c2C1c1cccnc1 (centres unmarked)	none
COc1cc(C2CC(=O)Nc3c2ccc2ccccc32)ccc1OCCO (centres unmarked)	none
Cn1nc(C(=O)N2CCC3(CC2)[C@H](O)C[C@@H]3OCCN)cc1-c1ccccc1	none
OCCCn1ccnc1-c1ccc(-c2ccccc2F)o1	none
Nc1ccc2nc(SCC(=O)N3CCCCC3)sc2c1	none
Cc1nn2c(ncc3c(N)ncnc32)c1-c1ccccc1	none
COc1ccc(CSc2nc(N)c3c4c(sc3n2)COC(C)(C)C4)cc1	none
CCCCC(Nc1ncnc2ccccc12)C(=O)O (centres unmarked)	none
O=C1c2ccccc2C(=O)c2c1cccc2-n1nnc2ccccc21	none
NCCO[C@H]1C[C@@H](O)C12CCN(C(=O)COc1ccc3c(c1)OCO3)CC2	none
CC1(CN2CCCC2)CCC(NC(=O)C(c2ccccc2)c2ccccc2)C(C)(C)O1 (centres unmarked)	none
C=CCC(C)(NCc1ccccc1)c1cccs1 (centres unmarked)	none
CCOc1ccccc1NC1OC(=O)c2ccccc21 (centres unmarked)	none
COc1ccc(Cl)cc1Nc1nc2ccccc2n2cnnc12	none
Cc1noc(C)c1C(=O)NC[C@@H]1C[C@H](F)CN1	none
C=CCNc1nc(C2(C)CC3(CC(COCCC(C)C)OC3=O)C(=O)O2)cs1 (centres unmarked)	none
Cc1cccc(-n2c(O)cnc2Nc2nc(C)cc(C)n2)c1	none
c1cncc(Nc2nc(-c3ccncc3)cs2)c1	none
Cc1ccccc1NCc1nc2ccccc2n1C	none
O=C(CNc1ccc(C(F)(F)F)cc1[N+](=O)[O-])N1CCOCC1	none
Cc1ccc(-c2noc(CNc3cccc(Cl)c3)n2)cc1	none
NCCCC(N)CC(=O)NCC1NC(=O)C(CO)NC(=O)C(N)CNC(=O)C(C2CCN=C(N)N2)NC(=O)C(=CNC(N)=O)NC1=O (centres unmarked)	none
CCn1c(C)ccc(C(=O)NCCCNC)c1=O	none
CC(C)=CCC1(CO)CCCN(C2CCN(C(=O)c3cnccn3)CC2)C1 (centres unmarked)	none
Nc1ccc(S(=O)(=O)NC(Cc2ccccc2)C(=O)O)cc1 (centres unmarked)	none
OCCN1CCN(c2ncnc3scc(-c4ccccc4)c23)CC1	none
CCN(CC)C(=O)[C@@H]1C[C@@H](N)CN1C(=O)c1cc(C)nn1CC	none
Cn1c(CN2CCOCC2)nc2cc(NCc3ccccn3)ccc21	none
CC1CN(CC(O)COc2ccc(Cl)cc2)CC(C)O1.Cl (centres unmarked)	none
OC(CN1C2=NCCN2c2ccccc21)c1ccccc1 (centres unmarked)	none
CCCCn1c(OC(=S)N(CC)CC)cc(C)nc1=S	none
COc1cc2c(O)cc(C(=O)O)c(-c3cc(OC)c(OC)c(OC)c3)c2cc1OC	none
C[C@]12CC[C@@H]3c4ccc(OCC(=O)O)cc4CC[C@H]3[C@@H]1CCC2=O	none
O=C1OC(Nc2ccc(Cl)cc2)c2ccccc21 (centres unmarked)	none
COCCCN1CCN(C(=O)c2cccc3c2NCCC3)CC(O)C1 (centres unmarked)	none
CCOC(=O)c1cnc(N2CCCCC2)nc1N	none
CN(C)C[C@H]1C[C@@H](CO)CN(C(=O)C2(c3ccccc3)CCCC2)C1	none
COC(=O)[C@@H](NCC(=O)NCc1ccccc1F)c1ccccc1	none
Nc1ccc2nc(SCc3ccc(Br)cc3)sc2c1	none
N#Cc1sc2nc(-c3ccccc3)c3c(c2c1N)CCCC3	none
N#CC1=C(N)OC2=C(C(=O)CCC2)C1c1ccccc1F (centres unmarked)	none
c1ccc(-c2ncn(C3CCNC3)c2-c2cccc(-n3cccn3)c2)cc1 (centres unmarked)	none
CC(=O)N1CCC2(CC1)C(C#N)=C(N)OC1=C2C(=O)CC(C)C1 (centres unmarked)	none
CCCCOC(=O)C1=C(N)OC2=C(C(=O)CC(C)(C)C2)C12C(=O)Nc1ccccc12 (centres unmarked)	none
Cc1ccc(C)c(NCc2c[nH]c3ccccc23)c1	none
N#CC1=C(N)N(c2ccc(Cl)cc2)C2=C(C(=O)CCC2)C1c1cccnc1 (centres unmarked)	none
O=C1Nc2ccccc2NC12CCN(Cc1ccc(F)cc1Cl)CC2	none
Nc1ccc2oc(-c3ccc(F)cc3Cl)nc2c1	none
C=CCNc1oc(-c2ccc(F)cc2)nc1C#N	none
CC(C)(O)CCc1ccc(C(=O)NCCc2nnc(N)s2)cc1	none
CNNCc1ccc(C(=O)NC(C)C)cc1	none
CC(NCCCc1cccnc1)C(=O)NC1CCCC1 (centres unmarked)	none
COCCCCC(=NOCCN)c1ccc(C(F)(F)F)cc1	none
C[C@]12CC[C@@H]3c4ccc(O)cc4C[C@@H](CCCCCCCCCS(=O)CCCC(F)(F)C(F)(F)F)[C@H]3[C@H]1CC[C@H]2O (some centres unmarked)	none
CCN(CCCCO)C(=O)c1cccc(-c2cn[nH]c2)c1	none
C=CCNc1ccccc1C(=O)NCCNC(=O)c1ccncc1	none

Calls as published in the ROBIN set (doi:10.1002/anie.202211358).